Here are results for one molecule from patent US20190192484A1 (UNIVERSITY OF CHICAGO, published 2019).

The chains behind the UniProt entries cited, without tags or fusion partners.
UniProt Q64373: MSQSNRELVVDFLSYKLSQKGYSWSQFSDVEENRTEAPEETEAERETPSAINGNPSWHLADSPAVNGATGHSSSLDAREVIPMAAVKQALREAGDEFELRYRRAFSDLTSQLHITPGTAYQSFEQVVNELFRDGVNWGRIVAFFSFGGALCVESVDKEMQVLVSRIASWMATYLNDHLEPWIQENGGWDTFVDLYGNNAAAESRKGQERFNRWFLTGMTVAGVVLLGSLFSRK

These are yes or no findings as the source states them, for the method shown. Some binding calls cover weakened binding; strength is not graded here.

The target in this assay is BCL-xL (endogenous, fibroblasts) (mouse) (UniProt Q64373). As to the kind of experiment: immunoprecipitation with anti-BCL-xL antibody, immunoblot with anti-BAD (FIG. 7B). In general terms: In western blotting, separated proteins are transferred to a membrane and probed.

B1: BAD(S26A) mutant (protein, UniProt Q61337 1-204, looked up)
chain: MGTPKQPSLAPAHALGLRKSDPGIRALGSDAGGRRWRPAAQSMFQIPEFEPSEQEDASATDRGLGPSLTEDQPGPYLAPGLLGSNIHQQGRAATNSHHGGAGAMETRSRHSSYPAGTEEDEGMEEELSPFRGRSRSAPPNLWAAQRYGRELRRMSDEFEGSFKGLPRPKSAGTATQMRQSAGWTRIIQSWWDRNLGKGGSTPSQ
Consider B1, for which the binding result is recorded as “binds”.
